PubChem BioAssay AID1508597 | Cure First – 2020

Screen: 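Survival screen with siRNA in ovarian cancer cells derived from patients, with or without rucaparib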 (primary screen)
System: human ovarian carcinoma lines grown from tumours: OCI-P5x (papillary serous) and OCI-C5x (clear cell)
Knock-down reagent: siRNA pool against human genes, 1.25 pmol siRNA per well
Timing: 72 h or 96 h, depending on the cell culture
Challenge: rucaparib 20 µM (about IC30) or vehicle, present until read-out
Rucaparib or vehicle: Vehicle
Cell line: OCI-P5x (serous)
Measured: 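Luminescent ATP-based viability assay read 72 or 96 h after transfection, depending on culture, given as normalised percent viability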
Reading the numbers: viability, normalised: higher = more viable cells remaining
Call rule: 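Active when normalised viability falls below 80 percent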
Calls: active = viability under 80%; inactive = viability 80% or more
Shown is an unselected part of the about 2,100 reagents, under one of the conditions tested. 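Calls flag viability under 80% in either arm, not effects specific to rucaparib; the reference for percent is not stated.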 Entries without a mark were called inactive. A reagent listed more than once was tested more than once; the source does not tell the runs apart. Not given: the 100% reference.

no.	gene	technical replicate	viability, normalised (%)
1	XAB2	1	42.9 (active)
2	XAB2	2	41.6 (active)
3	XAB2	3	35.7 (active)
4	NDC80	1	33 (active)
5	NDC80	2	37.4 (active)
6	NDC80	3	37 (active)
7	PTPN9	1	81.7
8	PTPN9	2	55.7 (active)
9	PTPN9	3	84.4
10	KAT2A	1	75 (active)
11	KAT2A	2	79.3 (active)
12	KAT2A	3	58.6 (active)
13	ZMYND11	1	67.5 (active)
14	ZMYND11	2	51.3 (active)
15	ZMYND11	3	51.8 (active)
16	TERF1	1	51.9 (active)
17	TERF1	1	49.9 (active)
18	TERF1	2	60.8 (active)
19	TERF1	2	47 (active)
20	TERF1	3	72.5 (active)
21	TERF1	3	52.2 (active)
22	RPIA	1	70.6 (active)
23	RPIA	2	77.4 (active)
24	RPIA	3	59.4 (active)
25	BCOR	1	73.4 (active)
26	BCOR	2	84.3
27	BCOR	3	84.7
28	ING2	1	94.8
29	ING2	2	80.7
30	ING2	3	105
31	FOXA1	1	59.8 (active)
32	FOXA1	2	39.2 (active)
33	FOXA1	3	68.9 (active)
34	TEAD4	1	83.5
35	TEAD4	2	72.3 (active)
36	TEAD4	3	89.2
37	KAT6A	1	46.1 (active)
38	KAT6A	2	53.8 (active)
39	KAT6A	3	67.4 (active)
40	DDB2	1	57 (active)
41	DDB2	1	62.1 (active)
42	DDB2	1	89.3
43	DDB2	2	72.6 (active)
44	DDB2	2	61.7 (active)
45	DDB2	2	71.5 (active)
46	DDB2	3	89.7
47	DDB2	3	62.8 (active)
48	DDB2	3	61 (active)
49	PCDHB13	1	31.9 (active)
50	PCDHB13	2	32.7 (active)
51	PCDHB13	3	53.5 (active)
52	TAF1	1	80.1
53	TAF1	1	77.7 (active)
54	TAF1	2	86.1
55	TAF1	2	71.2 (active)
56	TAF1	3	95.1
57	TAF1	3	51.4 (active)
58	GK	1	123
59	GK	2	105
60	GK	3	103
61	MBD5	1	72.2 (active)
62	MBD5	2	64.6 (active)
63	MBD5	3	68.6 (active)
64	CDKL3	1	77.2 (active)
65	CDKL3	2	82.3
66	CDKL3	3	76.9 (active)
67	XPA	1	58 (active)
68	XPA	2	48.3 (active)
69	XPA	3	65 (active)
70	G2E3	1	71.9 (active)
71	G2E3	2	61.1 (active)
72	G2E3	3	84.2
73	DPH5	1	30.7 (active)
74	DPH5	2	34.4 (active)
75	DPH5	3	81.3
